Measurements from patent publication US9282738B2, “Antimicrobial compositions and methods of use thereof” (WISCONSIN ALUMNI RESEARCH FOUNDATION, priority 2011, dated 2016).
At least one compound was matched to its structure with a doubt left.

Test system: C. crescentus CB15N
Assay: Viability of C. crescentus after exposure to antibiotics (colony counts)
Type: cell-based, Caulobacter crescentus
Details: antibiotic at twice its MIC, FIG. 7

## NC[C@H]1O[C@H](O[C@H]2[C@H](O)[C@@H](O[C@H]3O[C@H](CO)[C@@H](O)[C@H](N)[C@H]3O)[C@H](N)C[C@@H]2N)[C@H](O)[C@@H](O)[C@@H]1O [kanamycin, reference compound]
  colony forming units over time: decreased the colony forming units
